## Library screening results

Source: ChEMBL document CHEMBL3988442, “University of Dundee, Small-Polar-MMV Screening Library” (2021).

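Assay on Mycobacterium tuberculosis, filed only as a heat shock assay from Cornell; the read-out is not stated. The concentration is filed as 10 mM, unlikely as a test dose, so the dose is not known. The record gives no direction; compounds that gave an IC50 in retests scored well above the rest, so higher reads as stronger inhibition. Of about 69,000 compounds tested this way, about 930 (1.4%) reached 50% or more in at least one test.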

Results are given as percent effect. How 0% and 100% were set is not recorded. Most values in the screen are low, and negative values occur. The compounds are a random part of those screened.

SMILES | percent effect
CCc1cc(N(C)Cc2ccncn2)n2nc(C)c(C)c2n1 | 89.97
O=C(NCc1cccnc1)N1CCc2ncnc(NC3CC3)c2CC1.O=C(O)C(F)(F)F | -0.2594
CN1CCOC(CN(C(=O)COc2ccccc2)c2nccs2)C1 (stereo not drawn) | -6.466
CS(=O)(=O)CCN(CC1CCCO1)C1CCCC1 (stereo not drawn) | -22.68
c1ccc(Cn2cccn2)c(CNCC2CNc3ccnn3C2)c1 (stereo not drawn) | 14.7
Cc1nc(CN2CCCC2c2c(C)nn(C)c2Cl)oc1C (stereo not drawn) | -20.68
CCc1cn[nH]c1C1CCCN(C(=O)c2ncoc2C(C)C)C1 (stereo not drawn) | -20.17
O=C(O)C(F)(F)F.O=C1COC2(CCN(S(=O)(=O)C3CC3)CC2)CN1c1cccnc1 | -24.7
CC(C)c1ccccc1OCCNC(=O)N1CCC2(CC1)OCCO2 | -7.179
COc1ccc(Cn2c(=O)n(C)c(=O)c3sccc32)cc1 | 11.61
CCc1csc(CCNC(=O)C2CC(=O)N(C(C)C)C2)n1 (stereo not drawn) | -15.21
N#Cc1ccc(S(=O)(=O)Nc2cnn(C3CCOCC3)c2)cc1 | 13.47
CCOCC(O)CN1CCN(C(=O)C2CC2)CC1 (stereo not drawn) | 5.129
Cc1cc(NC(=O)Cn2cnc(-c3cccs3)cc2=O)no1 | 15.13
O=C(NCc1nc(C2CC2)no1)N1CCOC(c2ccccc2)C1 (stereo not drawn) | 0.8183
Cc1n[nH]c(C)c1CCCNCc1cn(CCC(N)=O)c2ccccc12 | -2.432
Clc1ccc2c(c1)C=C(CNC1CCc3ncnn3C1)CO2 (stereo not drawn) | 13.56
O=C(CCc1ccsc1)Nc1ccnn1C1CCS(=O)(=O)C1 (stereo not drawn) | -14.77
CC(Cn1cccn1)NC(=O)NCc1cccnc1 (stereo not drawn) | -2.085
CCNc1ncc(C(=O)NC2CCc3ccccc3C2)cn1 (stereo not drawn) | 11.64
O=C(NCC(O)c1ccc(F)cc1F)c1ccccc1 (stereo not drawn) | 21.61
Cc1nc2oc(C(=O)N3CCCC3)c(N)c2c2c1CCCC2 | 6.34
O=C(c1cc(-n2cccn2)ccn1)N(CC1CCC1)CC(F)(F)F | -58.99
CCn1nc(CC(C)C)cc1C(=O)N1CCCC(C#N)C1 (stereo not drawn) | -5.526
CCCC1(NC(=O)C(c2ccccc2C)N(C)C)CC1 (stereo not drawn) | -11.15
CC1(C)CC(CN2CCC3(CCC(=O)N(C4CCC4)C3)CC2)CCO1 (stereo not drawn) | -126
c1cc(CNCc2ccnc(N3CCCC3)c2)c2c(c1)OCCCO2 | -8.067
Cc1cn2nc(N3CCCC3C(=O)N3CCN(C)CC3)sc2n1 (stereo not drawn) | -37.39
Cc1nccc(N[C@H]2CN(C(=O)CN3CCCC3=O)C[C@@H]2C(C)C)n1 | -3.49
CCC(CC)C(=O)N1CCN(Cc2cc(-c3ccncc3)nn2C)CC1 | -8.674
O=C([C@@H](O)Cc1ccccc1)N1CCCn2cncc2C1 | 13.72
CCn1nc(C)c(CN(CCOC)C(=O)c2ccccc2N(C)C)c1C | 21.07
Oc1nc(N2CCOCC2)nc2c1CCN(Cc1cccc(F)c1)CC2 | -9.224
O=C(O)C(F)(F)F.O=C(O)C(F)(F)F.O=C(O)C(F)(F)F.[H][C@@]12CN(Cc3ccco3)C[C@]1([H])[C@@H](OC)CCN2Cc1ccccn1 | -2.588
Cc1ccc(C(=O)N2CCC3(CCCCC3)C2)c(=O)[nH]1 | 6.673
[H][C@]12C[C@@H](CN3CCCC3)N(C)[C@@]1([H])CCN(C(=O)c1ccsc1)C2 | -27.84
COc1cc(C)nc(N2CCN(C(=O)CCc3nccs3)CC2)n1 | -10.44
CCc1nc(C2CCCN2CCCc2nc3ccccc3o2)no1 (stereo not drawn) | -14.15
O=C(O)C(F)(F)F.[H][C@@]12CCN(c3ncc(F)cn3)[C@]1([H])CC[C@H](C(=O)NCCOC)O2 | -5.353
CC(=O)N1CCN(CCNc2ncc(Br)cc2C)CC1 | -24.83
NC(=O)c1cn[nH]c1NC(=O)c1ccc2c(c1)OCO2 | -13.86
CC(=O)N1CCCN(c2nccc(-c3cn(C)nc3C)n2)CC1 | -8.455
CCN1CCN(CC(O)c2ccc(F)cc2)CC1 (stereo not drawn) | 6.912
COC(=O)c1cc(NS(=O)(=O)c2cn(C)cn2)c(F)cc1F | -4.816
c1cnc(CC2CCN(c3cnccn3)CC2)cn1 | 38.93
CSCc1cc(F)ccc1CNC(=O)N1CCOCC1 | 7.242
CN(CC(=O)N1CCC(OCc2cccnc2)CC1)c1ccccc1 | 5.484
CCn1ncnc1C(C)NC(=O)COc1ccc(Cl)cc1Cl (stereo not drawn) | -11.64
NC(=O)CN1CCC(C(=O)N2CCCC(OCc3cccnc3)C2)CC1 (stereo not drawn) | 9.564
CC(Cn1cccn1)NCc1nc(-c2cccs2)no1 (stereo not drawn) | 22.29
CC(C)n1nc(CNc2ncccn2)c2c1CN(C)CC2.O=C(O)C(F)(F)F.O=C(O)C(F)(F)F.O=C(O)C(F)(F)F | -8.946
CC(C)N1CCc2c(c(COc3cncnc3)nn2CC2CC2)C1.O=C(O)C(F)(F)F | 2.594

7 of the entries, repeated:

SMILES	percent effect
CCc1nc(C2CCCN2CCCc2nc3ccccc3o2)no1 (stereo not drawn)	-14.15
Cc1n[nH]c(C)c1CCCNCc1cn(CCC(N)=O)c2ccccc12	-2.432
Cc1cn2nc(N3CCCC3C(=O)N3CCN(C)CC3)sc2n1 (stereo not drawn)	-37.39
CCOCC(O)CN1CCN(C(=O)C2CC2)CC1 (stereo not drawn)	5.129
Clc1ccc2c(c1)C=C(CNC1CCc3ncnn3C1)CO2 (stereo not drawn)	13.56
CCc1csc(CCNC(=O)C2CC(=O)N(C(C)C)C2)n1 (stereo not drawn)	-15.21
COC(=O)c1cc(NS(=O)(=O)c2cn(C)cn2)c(F)cc1F	-4.816